At least one compound was matched to its structure with a doubt left.
Key:
Papain = molecular target: T1, Papain (Carica papaya, UniProt P00784); assay: Study of Papain inhibition (fluorescence); assay type: biochemical; details: enzyme 20 ng/ml, 30 minutes at ambient temperature
T1 construct: purchased Sigma
T1 sequence (P00784 134-345): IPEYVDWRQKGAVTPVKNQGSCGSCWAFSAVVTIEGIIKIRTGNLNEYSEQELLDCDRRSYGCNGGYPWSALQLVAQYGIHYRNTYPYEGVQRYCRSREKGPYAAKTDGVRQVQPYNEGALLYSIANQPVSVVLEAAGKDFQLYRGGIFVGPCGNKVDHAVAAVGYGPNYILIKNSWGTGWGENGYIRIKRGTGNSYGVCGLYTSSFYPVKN
Procedure: (§1) The products to be tested (10 mM) are diluted to […] in DMSO and distributed into Nunc polystyrene 96 well plates at a rate of 2 μl per well. Column 12 of the plate is reserved for the controls and therefore receives […] of DMSO (without products) per well. The plates are stored at −80° C. and thawed on the day of the experiment.
(§2) The products are diluted to 50 μM by adding 38 μl of reaction buffer: sodium acetate 100 mM, EDTA 5 mM, DTT […] pH 5.5. The addition as well as all the operations by pipette are carried out with a CybiWell 96 tip pipette. After mixing the solutions, each product is transferred into 2 wells (duplicates) of a Greiner black 384 well plate at a rate of 10 μl per well. Two 96-well plates can therefore be tested in a 384-well plate.
(§3) A solution of substrate at 50 μM, Z-Val-arg-AMC (Calbiochem), is prepared in the reaction buffer. The substrate, is then distributed into all the wells of the 384-well plate (20 μl per well).
(§4) A solution of Cathepsin K at 12.5 ng/ml is prepared in the reaction buffer and distributed into all the wells of the 384-well plate (20 μl per well) except for the 16 wells serving as 100% inhibition controls (column 23 and 24, lines I to P) which receive 20 μl of enzyme-free buffer.
(§5) The plates are then incubated 2H at ambient temperature, then read on Fluoroskan (Labsystems): excitation 390 nm; emission 460 nm […]

Cathepsin B = molecular target: T2, Cathepsin B (Homo sapiens, UniProt P07858); assay: Study of Cathepsin B inhibition (fluorescence, Z-arg-arg-AMC); assay type: biochemical; details: substrate Z-arg-arg-AMC 20 μM, enzyme 16 ng/ml, 1 hour at ambient temperature
T2 construct: purchased Calbiochem
Procedure: as §1, §2, §3, §4, §5

Molecule `C=CCOC(=O)CC[C@H](NC(=O)[C@@H]1CCCN2C(=O)CCC[C@H](NC(=O)NC3CCCCC3)C(=O)N12)C(=O)COC(=O)c1c(Cl)cccc1Cl` [Example 122, (2-propenyl)(4S)6-[(2,6-dichlorobenzoyl)oxy]-4-[[[(1S,9S)-9-[[(cyclohexylamino)carbonyl]amino]-octahydro-6,10-dioxo-o-6H-pyridazino[1,2-a][1,2]diazepine-1-yl]carbonyl]amino]-5-oxo-hexanoate] has an IC50 (Papain) of 20 µM.

Work on `C[C@H](NC(=O)[C@@H]1CCCN2C(=O)CC[C@H](NC(=O)NCCc3cccs3)C(=O)N12)C(=O)C=[N+]=[N-]` [Example 172, 9-[(9S)-[[[3-(thien-2-yl)-ethyl]amino]carbonyl]amino]-N-((2S)-4-diazo-3-oxo-2-butyl)-octahydro-6,10-dioxo-6H-(1S)-pyridazino[1,2-a][1,2]diazepine-1-carboxamide] yielded an IC50 (Cathepsin B) of 20 µM.

Reference: patent publication US20030100550A1, “Carboxamide diazepin derivatives, preparation method, use as medicines, pharmaceutical compositions and use thereof” (priority 2002, published 2003)
